The effect of the compound repeats well; differences between the knockouts mostly do not.
Legend:
[1] = test system: BT-20; test: relative cell number vs DMSO control (72 h) (% of DMSO); higher = less growth inhibition (more cells)
Protocol: (§1)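 QMAP-Seq: a pool of 5 breast cancer cell lines (ZR-75-1, SKBR3, HCC-38, MDA-MB-231, BT-20), each carrying 12 doxycycline-inducible Cas9 sgRNA perturbations (11 knockouts plus non-targeting sgNT), was treated with compounds for 72 h at four 10-fold doses (10 nM-10 uM or 1 nM-1 uM range). Barcodes were amplified and sequenced, and cell number was interpolated from 293T spike-in standard curves. The result is expressed as % of the median of DMSO wells. Two biological replicates.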

[2] = test system: HCC-38; test: as above
Protocol: as §1

CCCc1nn(C)c2c(=O)[nH]c(-c3cc(S(=O)(=O)N4CCN(C)CC4)ccc3OCC)nc12 [Sildenafil]
relative cell number
Settings | [1] | [2]
sgRNA knockout: sgATF3, 10 nM | 103 | 88.9
sgRNA knockout: sgATF3, 100 nM | 95.6 | 108
sgRNA knockout: sgATF3, 1000 nM | 93.8 | 111
sgRNA knockout: sgATF3, 10000 nM | 93.9 | 113
sgRNA knockout: sgATF4, 10 nM | 89.8 | 83.4
sgRNA knockout: sgATF4, 100 nM | 98.9 | 98.48
sgRNA knockout: sgATF4, 1000 nM | 113.5 | 109
sgRNA knockout: sgATF4, 10000 nM | 107 | 129
sgRNA knockout: sgATF6, 10 nM | 102 | 92.9
sgRNA knockout: sgATF6, 100 nM | 98.8 | 99.8
sgRNA knockout: sgATF6, 1000 nM | 97.4 | 91.4
sgRNA knockout: sgATF6, 10000 nM | 86.5 | 90.8
sgRNA knockout: sgATG7, 10 nM | 88.9 | 83.8
sgRNA knockout: sgATG7, 100 nM | 104 | 100
sgRNA knockout: sgATG7, 1000 nM | 108 | 111
sgRNA knockout: sgATG7, 10000 nM | 106 | 125
sgRNA knockout: sgERN1, 10 nM | 86.8 | 96.3
sgRNA knockout: sgERN1, 100 nM | 109 | 99.5
sgRNA knockout: sgERN1, 1000 nM | 95 | 112
sgRNA knockout: sgERN1, 10000 nM | 93.8 | 111
sgRNA knockout: sgHSF1, 10 nM | 96.2 | 101
sgRNA knockout: sgHSF1, 100 nM | 99.9 | 117
sgRNA knockout: sgHSF1, 1000 nM | 99.02 | 93.5
sgRNA knockout: sgHSF1, 10000 nM | 111 | 93.4
sgRNA knockout: sgHSF2, 10 nM | 86 | 90.4
sgRNA knockout: sgHSF2, 100 nM | 104 | 94.7
sgRNA knockout: sgHSF2, 1000 nM | 84 | 95.55
sgRNA knockout: sgHSF2, 10000 nM | 89.7 | 116
sgRNA knockout: sgKEAP1, 10 nM | 82.4 | 98.6
sgRNA knockout: sgKEAP1, 100 nM | 90.6 | 101
sgRNA knockout: sgKEAP1, 1000 nM | 102 | 95.8
sgRNA knockout: sgKEAP1, 10000 nM | 95.4 | 92.5
sgRNA knockout: sgNFE2L2, 10 nM | 94 | 84.6
sgRNA knockout: sgNFE2L2, 100 nM | 106 | 101.17
sgRNA knockout: sgNFE2L2, 1000 nM | 85.6 | 115
sgRNA knockout: sgNFE2L2, 10000 nM | 95.9 | 136
sgRNA knockout: sgSLC35F2, 10 nM | 108 | 87.4
sgRNA knockout: sgSLC35F2, 100 nM | 106 | 102.9
sgRNA knockout: sgSLC35F2, 1000 nM | 102 | 103
sgRNA knockout: sgSLC35F2, 10000 nM | 95.5 | 122
sgRNA knockout: sgXBP1, 10 nM | 95 | 82.8
sgRNA knockout: sgXBP1, 100 nM | 98.4 | 100.4
sgRNA knockout: sgXBP1, 1000 nM | 108 | 104
sgRNA knockout: sgXBP1, 10000 nM | 110 | 128

O=c1cc(-c2cccc3c2Sc2ccccc2S3)oc(N2CCOCC2)c1
relative cell number
Settings | [1] | [2]
sgRNA knockout: sgATF3, 10 nM | 90.6 | 95.2
sgRNA knockout: sgATF3, 100 nM | 87.43 | 80.6
sgRNA knockout: sgATF3, 1000 nM | 91.9 | 95
sgRNA knockout: sgATF3, 10000 nM | 82.7 | 88.5
sgRNA knockout: sgATF4, 10 nM | 90.57 | 97
sgRNA knockout: sgATF4, 100 nM | 90.2 | 67.2
sgRNA knockout: sgATF4, 1000 nM | 99 | 84
sgRNA knockout: sgATF4, 10000 nM | 85.1 | 87.65
sgRNA knockout: sgATF6, 10 nM | 106 | 104
sgRNA knockout: sgATF6, 100 nM | 106 | 94.6
sgRNA knockout: sgATF6, 1000 nM | 107 | 94.9
sgRNA knockout: sgATF6, 10000 nM | 89.5 | 79.3
sgRNA knockout: sgATG7, 10 nM | 102 | 95.5
sgRNA knockout: sgATG7, 100 nM | 94.7 | 75.2
sgRNA knockout: sgATG7, 1000 nM | 110 | 85.9
sgRNA knockout: sgATG7, 10000 nM | 71.3 | 78.3
sgRNA knockout: sgERN1, 10 nM | 89.2 | 99.8
sgRNA knockout: sgERN1, 100 nM | 98 | 82.6
sgRNA knockout: sgERN1, 1000 nM | 93.87 | 87.5
sgRNA knockout: sgERN1, 10000 nM | 89.9 | 79.2
sgRNA knockout: sgHSF1, 10 nM | 97.6 | 106
sgRNA knockout: sgHSF1, 100 nM | 96.4 | 86.49
sgRNA knockout: sgHSF1, 1000 nM | 104 | 88.5
sgRNA knockout: sgHSF1, 10000 nM | 94.2 | 77.4
sgRNA knockout: sgHSF2, 10 nM | 91 | 102
sgRNA knockout: sgHSF2, 100 nM | 85.05 | 90.9
sgRNA knockout: sgHSF2, 1000 nM | 97.1 | 91.2
sgRNA knockout: sgHSF2, 10000 nM | 82.8 | 78.1
sgRNA knockout: sgKEAP1, 10 nM | 97.2 | 101
sgRNA knockout: sgKEAP1, 100 nM | 88.3 | 98.3
sgRNA knockout: sgKEAP1, 1000 nM | 110 | 102
sgRNA knockout: sgKEAP1, 10000 nM | 99.2 | 70.8
sgRNA knockout: sgNFE2L2, 10 nM | 89.4 | 91.7
sgRNA knockout: sgNFE2L2, 100 nM | 91.5 | 69
sgRNA knockout: sgNFE2L2, 1000 nM | 94.3 | 84.1
sgRNA knockout: sgNFE2L2, 10000 nM | 80.5 | 85
sgRNA knockout: sgSLC35F2, 10 nM | 74.5 | 93.1
sgRNA knockout: sgSLC35F2, 100 nM | 83.11 | 83
sgRNA knockout: sgSLC35F2, 1000 nM | 106 | 91.9
sgRNA knockout: sgSLC35F2, 10000 nM | 75.3 | 85.2
sgRNA knockout: sgXBP1, 10 nM | 92.8 | 99.158
sgRNA knockout: sgXBP1, 100 nM | 92.2 | 75.9
sgRNA knockout: sgXBP1, 1000 nM | 103 | 85.1
sgRNA knockout: sgXBP1, 10000 nM | 91.724 | 89.1

From the supplement of paper PMC7661543
